# PubChem BioAssay AID1259254, NCATS, 2017
# Assay: 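Genome-wide screen for genes that prevent DNA re-replication in cancer cells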 (primary screen)
# Cells: human HCT116 colorectal cancer cells
# Reagents: single siRNA against human genes
# Timing: 3 days
# Detection: 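Nuclei stained with Hoechst and imaged; cell-cycle phase assigned by DNA content; G2 share scaled per plate, non-targeting siRNA 0%, GMNN siRNA 100%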
# Reading the numbers: G2 robust z-score and G2 cells, % of GMNN control: higher = more G2 cells, more excess DNA replication; raw share of cells in G2: higher = larger share of cells with G2 DNA content
# Active means: 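Active siRNAs have a G2 robust z of 5 or more median absolute deviations over the median, which in these data means about 38% or higher of GMNN control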
# In all, the deposit lists about 59,000 reagents; shown is a random part of them. About 1,550 of them (2.6%) were called active. 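G2 share is only a proxy for re-replication; each gene was hit by three separate siRNAs, and active genes were retested.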 The raw values are shown without normalisation. Reagents against one gene are numbered here. The record does not give: the amount of reagent.
gene knocked down,reagent,G2 robust z-score,"G2 cells, % of GMNN control",raw share of cells in G2 (%),call
HPDL,1,0.694,7.85,7.69,inactive
HPDL,2,0.381,5.65,7.78,inactive
HPDL,3,1.52,13.7,9.15,inactive
PLCD1,1,-0.277,1.02,5.13,inactive
PLCD1,2,1.23,11.6,7.81,inactive
PLCD1,3,0.0722,3.48,4.54,inactive
ADD1,1,-1.14,-5.05,3,inactive
ADD1,2,0.372,5.59,7.06,inactive
ADD1,3,1.99,16.9,10.3,inactive
NRN1L,1,-0.494,-0.505,3.18,inactive
NRN1L,2,-0.678,-1.81,1.29,inactive
NRN1L,3,-0.24,1.28,4.6,inactive
CHRNB3,1,-0.726,-2.14,4.51,inactive
CHRNB3,2,-1.14,-5.06,3.07,inactive
CHRNB3,3,-0.12,2.12,5.2,inactive
TRIM14,1,0.0688,3.45,6.51,inactive
TRIM14,2,-0.841,-2.95,2.19,inactive
TRIM14,3,0.435,6.03,7.2,inactive
PALMD,1,0.348,5.42,5.54,inactive
PALMD,2,3.44,27.2,15.7,inactive
PALMD,3,-0.000749,2.96,4.17,inactive
PIGY,1,1.12,10.9,6.37,inactive
PIGY,2,-0.869,-3.14,2.75,inactive
PIGY,3,-0.176,1.73,3.54,inactive
CIMAP3,1,-0.367,0.385,4.32,inactive
CIMAP3,2,-0.437,-0.109,3.07,inactive
CIMAP3,3,0.7,7.89,5.44,inactive
BANK1,1,3.34,26.5,18,inactive
BANK1,2,-0.895,-3.33,3.25,inactive
BANK1,3,0.646,7.51,7.47,inactive
NXF5,1,0.73,8.1,9.98,inactive
NXF5,2,0.546,6.81,6.88,inactive
NXF5,3,-0.908,-3.42,2.91,inactive
ARC,1,0.876,9.13,6.59,inactive
ARC,2,1.4,12.8,10,inactive
ARC,3,-0.582,-1.12,3.67,inactive
CALML6,1,0.436,6.04,5.17,inactive
CALML6,2,0.702,7.91,5.91,inactive
CALML6,3,-1.06,-4.49,1.95,inactive
FAM131B,1,0.125,3.84,7.07,inactive
FAM131B,2,3.53,27.8,15.6,inactive
FAM131B,3,2.08,17.6,9.82,inactive
OR3A1,1,-0.2,1.56,5.64,inactive
OR3A1,2,0.746,8.22,7.47,inactive
OR3A1,3,0.223,4.54,4.99,inactive
MED26,1,-0.524,-0.72,3.29,inactive
MED26,2,1.28,12,11.3,inactive
MED26,3,0.453,6.16,5.92,inactive
NPNT,1,-0.277,1.02,3.44,inactive
NPNT,2,-0.0468,2.64,4.08,inactive
NPNT,3,-0.722,-2.11,2.78,inactive
EPHA1,1,-0.246,1.23,4.46,inactive
EPHA1,2,-0.686,-1.86,4.99,inactive
EPHA1,3,0.167,4.14,6.81,inactive
ZNF683,1,-0.114,2.16,6.99,inactive
ZNF683,2,2.02,17.2,11,inactive
ZNF683,3,0.781,8.47,8.26,inactive
CLTCL1,1,1.77,15.5,10,inactive
CLTCL1,2,3.96,30.8,18.6,inactive
CLTCL1,3,0.198,4.36,5.91,inactive
PPFIA4,1,4.67,35.8,17.5,inactive
PPFIA4,2,-0.739,-2.23,3.52,inactive
PPFIA4,3,-0.444,-0.158,5.21,inactive
XPC,1,2.79,22.6,15.1,inactive
XPC,2,2.77,22.4,11.9,inactive
XPC,3,0.587,7.1,6.9,inactive
ATP6V0C,1,1.36,12.5,9.49,inactive
ATP6V0C,2,0.447,6.11,7.41,inactive
ATP6V0C,3,-0.566,-1.02,3.36,inactive

3 entries from above, set out differently:
| gene knocked down | reagent | G2 robust z-score | G2 cells, % of GMNN control | raw share of cells in G2 (%) | call |
| --- | --- | --- | --- | --- | --- |
| FAM131B | 3 | 2.08 | 17.6 | 9.82 | inactive |
| OR3A1 | 1 | -0.2 | 1.56 | 5.64 | inactive |
| OR3A1 | 2 | 0.746 | 8.22 | 7.47 | inactive |
